Assay results taken from patent publication US20180148718.
For at least one entry, the source does not settle the construct or the ends of the probe. At least one result comes from cells or an extract, where the contact may be indirect. For part of these data: Tags and fusion partners may be left off the protein sequences shown.

Amino acid sequences for entries named in this document (tags omitted). A change or cut given only in a name is not applied to a line headed by its entry. Residues count along the entry.
UniProt P12956, 2-609: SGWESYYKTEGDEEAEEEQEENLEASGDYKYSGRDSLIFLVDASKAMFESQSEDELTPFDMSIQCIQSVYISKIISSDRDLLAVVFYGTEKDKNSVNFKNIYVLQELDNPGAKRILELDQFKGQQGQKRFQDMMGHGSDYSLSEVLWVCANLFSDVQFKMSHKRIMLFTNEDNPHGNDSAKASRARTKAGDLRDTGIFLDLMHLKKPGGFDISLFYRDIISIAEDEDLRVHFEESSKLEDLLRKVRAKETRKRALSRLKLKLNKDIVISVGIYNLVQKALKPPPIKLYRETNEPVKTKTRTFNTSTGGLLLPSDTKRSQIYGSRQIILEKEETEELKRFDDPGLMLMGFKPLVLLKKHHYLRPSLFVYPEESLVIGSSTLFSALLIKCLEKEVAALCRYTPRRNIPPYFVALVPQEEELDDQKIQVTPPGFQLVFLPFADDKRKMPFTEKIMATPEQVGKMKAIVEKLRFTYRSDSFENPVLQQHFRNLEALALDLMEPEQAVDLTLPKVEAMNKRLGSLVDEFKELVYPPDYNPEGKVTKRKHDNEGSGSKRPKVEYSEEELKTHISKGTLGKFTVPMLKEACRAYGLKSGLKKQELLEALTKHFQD
UniProt P13010, 2-732: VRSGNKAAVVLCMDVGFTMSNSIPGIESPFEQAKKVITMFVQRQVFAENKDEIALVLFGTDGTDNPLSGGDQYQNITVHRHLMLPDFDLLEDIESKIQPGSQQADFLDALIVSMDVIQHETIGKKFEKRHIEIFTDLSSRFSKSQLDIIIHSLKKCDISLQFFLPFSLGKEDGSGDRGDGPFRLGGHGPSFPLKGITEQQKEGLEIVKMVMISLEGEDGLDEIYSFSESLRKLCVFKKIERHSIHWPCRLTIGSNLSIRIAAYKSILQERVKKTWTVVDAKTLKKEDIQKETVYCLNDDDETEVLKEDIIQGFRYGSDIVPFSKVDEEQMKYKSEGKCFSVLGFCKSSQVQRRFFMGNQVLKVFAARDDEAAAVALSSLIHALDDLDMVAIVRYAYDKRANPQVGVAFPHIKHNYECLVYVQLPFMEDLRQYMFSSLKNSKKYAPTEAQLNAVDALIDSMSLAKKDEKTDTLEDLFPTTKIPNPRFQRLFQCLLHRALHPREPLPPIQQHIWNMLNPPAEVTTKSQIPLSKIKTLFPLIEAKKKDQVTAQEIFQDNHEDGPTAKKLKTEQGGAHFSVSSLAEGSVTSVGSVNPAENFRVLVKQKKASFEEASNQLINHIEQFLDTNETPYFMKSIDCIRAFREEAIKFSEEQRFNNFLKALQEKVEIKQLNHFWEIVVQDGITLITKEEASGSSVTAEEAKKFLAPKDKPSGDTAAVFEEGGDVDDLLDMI
UniProt P23246: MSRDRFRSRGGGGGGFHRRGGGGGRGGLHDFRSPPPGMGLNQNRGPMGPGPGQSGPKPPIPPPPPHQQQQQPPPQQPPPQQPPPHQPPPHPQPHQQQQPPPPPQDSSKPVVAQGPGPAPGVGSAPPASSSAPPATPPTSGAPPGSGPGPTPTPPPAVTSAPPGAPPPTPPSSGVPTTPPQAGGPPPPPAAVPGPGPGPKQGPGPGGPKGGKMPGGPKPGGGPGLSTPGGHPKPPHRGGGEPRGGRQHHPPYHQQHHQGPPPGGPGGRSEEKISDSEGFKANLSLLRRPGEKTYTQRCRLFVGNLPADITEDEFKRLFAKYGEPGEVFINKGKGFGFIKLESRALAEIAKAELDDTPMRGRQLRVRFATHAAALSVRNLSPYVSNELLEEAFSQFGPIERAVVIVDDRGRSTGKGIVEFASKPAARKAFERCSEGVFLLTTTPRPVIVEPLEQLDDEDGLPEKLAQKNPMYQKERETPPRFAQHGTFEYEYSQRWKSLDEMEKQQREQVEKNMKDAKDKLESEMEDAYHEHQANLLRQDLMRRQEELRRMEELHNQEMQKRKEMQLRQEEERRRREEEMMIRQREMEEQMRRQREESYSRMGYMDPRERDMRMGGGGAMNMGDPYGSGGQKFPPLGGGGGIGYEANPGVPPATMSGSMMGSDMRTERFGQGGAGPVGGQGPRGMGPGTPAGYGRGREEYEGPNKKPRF
UniProt Q15233: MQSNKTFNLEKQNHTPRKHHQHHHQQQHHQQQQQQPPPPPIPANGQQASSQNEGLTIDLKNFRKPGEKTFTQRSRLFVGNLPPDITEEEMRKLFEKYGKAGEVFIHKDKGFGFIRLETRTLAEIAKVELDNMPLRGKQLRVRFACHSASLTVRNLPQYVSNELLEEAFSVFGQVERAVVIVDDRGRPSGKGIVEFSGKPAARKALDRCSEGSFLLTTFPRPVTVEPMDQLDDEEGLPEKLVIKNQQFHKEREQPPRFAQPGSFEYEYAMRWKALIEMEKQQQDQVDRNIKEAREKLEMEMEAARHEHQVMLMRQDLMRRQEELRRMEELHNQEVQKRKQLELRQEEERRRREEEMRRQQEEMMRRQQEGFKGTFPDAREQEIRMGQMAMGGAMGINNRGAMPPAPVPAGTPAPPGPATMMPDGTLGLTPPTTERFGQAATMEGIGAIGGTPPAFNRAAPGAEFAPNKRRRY
UniProt P05455: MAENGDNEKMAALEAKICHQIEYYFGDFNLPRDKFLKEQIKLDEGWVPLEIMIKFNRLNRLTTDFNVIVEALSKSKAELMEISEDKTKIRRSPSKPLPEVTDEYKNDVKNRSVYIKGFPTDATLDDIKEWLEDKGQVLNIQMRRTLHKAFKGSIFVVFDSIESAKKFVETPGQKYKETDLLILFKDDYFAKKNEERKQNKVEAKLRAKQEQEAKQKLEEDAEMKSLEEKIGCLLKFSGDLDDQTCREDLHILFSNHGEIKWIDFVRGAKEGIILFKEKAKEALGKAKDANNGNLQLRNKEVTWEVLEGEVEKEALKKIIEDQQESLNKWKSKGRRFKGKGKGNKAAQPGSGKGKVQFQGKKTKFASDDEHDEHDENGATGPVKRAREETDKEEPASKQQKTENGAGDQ
UniProt Q96CX2, 2-325: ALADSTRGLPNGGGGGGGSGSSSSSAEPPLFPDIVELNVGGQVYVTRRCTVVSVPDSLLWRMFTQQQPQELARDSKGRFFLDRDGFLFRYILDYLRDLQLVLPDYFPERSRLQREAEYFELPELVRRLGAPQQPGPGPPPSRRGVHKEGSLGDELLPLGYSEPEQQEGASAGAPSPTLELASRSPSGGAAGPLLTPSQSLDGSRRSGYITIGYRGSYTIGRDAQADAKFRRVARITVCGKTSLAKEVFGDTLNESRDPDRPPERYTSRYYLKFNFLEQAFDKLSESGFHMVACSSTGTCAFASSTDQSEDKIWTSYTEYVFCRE

Tests used:
Assay in all cases: pull-down
Ku70 (Homo sapiens) = Ku70 (Homo sapiens) (UniProt P12956); conditions: full PS, protein in an extract, protein details: HeLa cell extract
Ku80 (Homo sapiens) = Ku80 (Homo sapiens) (UniProt P13010); conditions: full PS, protein in an extract, protein details: HeLa cell extract
RNaseH1 (Homo sapiens) = target: T1, RNaseH1 (Homo sapiens) (UniProt O60930); conditions: full PS, protein in an extract, protein details: HeLa cell extract
T1 sequence (looked up, limits assumed): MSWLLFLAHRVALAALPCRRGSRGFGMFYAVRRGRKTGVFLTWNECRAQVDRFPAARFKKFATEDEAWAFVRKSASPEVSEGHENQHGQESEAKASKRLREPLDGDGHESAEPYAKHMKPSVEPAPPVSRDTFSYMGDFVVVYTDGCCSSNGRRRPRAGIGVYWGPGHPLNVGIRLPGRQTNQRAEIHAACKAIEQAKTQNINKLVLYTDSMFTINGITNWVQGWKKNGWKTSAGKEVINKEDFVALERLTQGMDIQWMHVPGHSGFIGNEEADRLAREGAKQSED

ATAD3A (Homo sapiens) = target: T2, ATAD3A (Homo sapiens) (UniProt Q9NVI7); conditions: full PS, protein in an extract, protein details: HeLa cell extract
T2 sequence (looked up, limits assumed): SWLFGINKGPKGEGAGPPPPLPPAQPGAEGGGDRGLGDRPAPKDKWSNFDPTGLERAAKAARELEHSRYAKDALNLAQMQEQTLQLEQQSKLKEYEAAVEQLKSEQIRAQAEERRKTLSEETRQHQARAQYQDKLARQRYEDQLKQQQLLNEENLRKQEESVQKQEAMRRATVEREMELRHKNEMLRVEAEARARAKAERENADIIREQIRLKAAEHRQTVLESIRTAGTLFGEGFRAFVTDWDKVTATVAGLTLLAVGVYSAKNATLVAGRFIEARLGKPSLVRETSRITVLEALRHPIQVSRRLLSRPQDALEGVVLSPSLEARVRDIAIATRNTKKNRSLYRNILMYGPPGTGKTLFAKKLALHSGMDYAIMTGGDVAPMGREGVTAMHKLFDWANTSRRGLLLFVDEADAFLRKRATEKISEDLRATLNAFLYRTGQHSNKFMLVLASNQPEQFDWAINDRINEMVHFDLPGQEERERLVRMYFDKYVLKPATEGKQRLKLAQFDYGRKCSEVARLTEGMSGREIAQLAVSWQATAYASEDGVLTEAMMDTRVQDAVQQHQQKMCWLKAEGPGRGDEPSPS

PSF (Homo sapiens) = PSF (Homo sapiens) (UniProt P23246); conditions: full PS, protein in an extract, protein details: HeLa cell extract
P54nrb (Homo sapiens) = P54nrb (Homo sapiens) (UniProt Q15233); conditions: full PS, protein in an extract, protein details: HeLa cell extract
[1] = target: PC4 (SUB1) (Homo sapiens) (UniProt P53999); conditions: full PS, protein in an extract, protein details: HeLa cell extract
TCP1-beta (Homo sapiens) = target: T3, TCP1-beta (Homo sapiens) (UniProt P78371); conditions: full PS, protein in an extract, protein details: HeLa cell extract
T3 sequence (looked up, limits assumed): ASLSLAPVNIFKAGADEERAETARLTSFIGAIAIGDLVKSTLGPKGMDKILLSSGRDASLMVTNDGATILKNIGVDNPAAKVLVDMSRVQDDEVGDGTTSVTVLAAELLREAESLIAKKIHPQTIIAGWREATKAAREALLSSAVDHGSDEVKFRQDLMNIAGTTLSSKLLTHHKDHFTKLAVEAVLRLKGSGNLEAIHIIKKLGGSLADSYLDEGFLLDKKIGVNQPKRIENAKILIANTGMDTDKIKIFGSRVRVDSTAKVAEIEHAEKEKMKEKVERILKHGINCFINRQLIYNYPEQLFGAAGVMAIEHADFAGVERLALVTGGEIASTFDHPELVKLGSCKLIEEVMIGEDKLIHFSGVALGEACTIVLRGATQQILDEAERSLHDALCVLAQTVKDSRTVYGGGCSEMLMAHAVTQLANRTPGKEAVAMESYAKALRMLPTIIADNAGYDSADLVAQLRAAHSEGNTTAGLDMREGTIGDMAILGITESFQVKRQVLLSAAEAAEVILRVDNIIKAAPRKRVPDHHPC

VARS (Homo sapiens) = target: T4, VARS (Homo sapiens) (UniProt P26640); conditions: full PS, protein in an extract, protein details: HeLa cell extract
T4 sequence (looked up, limits assumed): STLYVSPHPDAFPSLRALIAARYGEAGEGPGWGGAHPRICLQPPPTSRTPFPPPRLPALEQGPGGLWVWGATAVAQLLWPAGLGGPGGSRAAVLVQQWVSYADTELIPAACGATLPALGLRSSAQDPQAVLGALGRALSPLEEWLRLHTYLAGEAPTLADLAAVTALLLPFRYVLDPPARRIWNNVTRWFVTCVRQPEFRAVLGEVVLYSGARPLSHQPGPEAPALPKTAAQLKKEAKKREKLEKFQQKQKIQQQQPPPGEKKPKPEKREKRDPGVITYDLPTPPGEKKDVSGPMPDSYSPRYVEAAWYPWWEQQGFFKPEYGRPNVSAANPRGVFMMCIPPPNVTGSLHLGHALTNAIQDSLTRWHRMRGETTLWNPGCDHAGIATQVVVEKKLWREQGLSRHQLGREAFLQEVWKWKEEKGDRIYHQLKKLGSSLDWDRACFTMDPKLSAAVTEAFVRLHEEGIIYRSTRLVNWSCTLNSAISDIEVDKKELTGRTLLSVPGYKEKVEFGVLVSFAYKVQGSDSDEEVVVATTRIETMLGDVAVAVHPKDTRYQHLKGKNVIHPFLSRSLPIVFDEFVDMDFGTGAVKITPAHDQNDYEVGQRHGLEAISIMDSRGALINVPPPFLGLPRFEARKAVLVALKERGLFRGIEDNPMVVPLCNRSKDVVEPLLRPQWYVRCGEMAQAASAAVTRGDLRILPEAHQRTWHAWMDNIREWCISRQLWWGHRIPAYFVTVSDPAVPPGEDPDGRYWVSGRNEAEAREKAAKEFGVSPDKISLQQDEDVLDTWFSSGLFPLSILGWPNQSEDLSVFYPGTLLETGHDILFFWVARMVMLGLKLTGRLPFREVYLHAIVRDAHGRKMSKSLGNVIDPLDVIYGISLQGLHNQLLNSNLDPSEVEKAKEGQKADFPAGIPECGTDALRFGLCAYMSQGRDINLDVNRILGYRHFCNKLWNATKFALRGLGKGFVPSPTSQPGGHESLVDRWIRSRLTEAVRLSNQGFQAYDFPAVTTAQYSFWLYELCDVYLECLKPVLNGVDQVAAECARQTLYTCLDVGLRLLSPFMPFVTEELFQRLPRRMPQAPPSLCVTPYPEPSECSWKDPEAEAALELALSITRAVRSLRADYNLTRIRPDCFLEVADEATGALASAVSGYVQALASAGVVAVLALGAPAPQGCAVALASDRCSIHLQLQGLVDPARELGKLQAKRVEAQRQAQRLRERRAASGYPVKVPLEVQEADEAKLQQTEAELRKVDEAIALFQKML

La (SSB) (Homo sapiens) = La (SSB) (Homo sapiens) (UniProt P05455); conditions: 5-10-5 gapmer, 2'-MOE wings 1-5 and 16-20, 2'-deoxy gap, all C 5mC, full PS; specific PS-ASO association, western confirmed; protein in an extract; protein details: HeLa cell extract; label: 5' biotin-TEG (386652), none (116847); synthetic backbone
[2] = target: TCP1-epsilon (Homo sapiens) (UniProt P48643); conditions: 5-10-5 gapmer, 2'-MOE wings 1-5 and 16-20, 2'-deoxy gap, all C 5mC, full PS; specific PS-ASO association, western confirmed; protein in an extract; protein details: HeLa cell extract; label: 5' biotin-TEG (386652), none (116847); synthetic backbone
[3] = target: TCP1-alpha (Homo sapiens) (UniProt P17987); conditions: 5-10-5 gapmer, 2'-MOE wings 1-5 and 16-20, 2'-deoxy gap, all C 5mC, full PS; specific PS-ASO association, western confirmed; protein in an extract; protein details: HeLa cell extract; label: 5' biotin-TEG (386652), none (116847); synthetic backbone
hnRNPK (Homo sapiens) = hnRNPK (Homo sapiens) (UniProt P61978); conditions: 5-10-5 gapmer, 2'-MOE wings 1-5 and 16-20, 2'-deoxy gap, all C 5mC, full PS; specific PS-ASO association, western confirmed; protein in an extract; protein details: HeLa cell extract; label: 5' biotin-TEG (386652), none (116847); synthetic backbone
KCTD12 (Homo sapiens) = KCTD12 (Homo sapiens) (UniProt Q96CX2); conditions: 5-10-5 gapmer, 2'-MOE wings 1-5 and 16-20, 2'-deoxy gap, all C 5mC, full PS; specific PS-ASO association, western confirmed; protein in an extract; protein details: HeLa cell extract; label: 5' biotin-TEG (386652), none (116847); synthetic backbone
PSPC1 (Homo sapiens) = target: T5, PSPC1 (Homo sapiens) (UniProt Q8WXF1); conditions: 5-10-5 gapmer, 2'-MOE wings 1-5 and 16-20, 2'-deoxy gap, all C 5mC, full PS; specific PS-ASO association, western confirmed; protein in an extract; protein details: HeLa cell extract; label: 5' biotin-TEG (386652), none (116847); synthetic backbone
T5 sequence (looked up, limits assumed): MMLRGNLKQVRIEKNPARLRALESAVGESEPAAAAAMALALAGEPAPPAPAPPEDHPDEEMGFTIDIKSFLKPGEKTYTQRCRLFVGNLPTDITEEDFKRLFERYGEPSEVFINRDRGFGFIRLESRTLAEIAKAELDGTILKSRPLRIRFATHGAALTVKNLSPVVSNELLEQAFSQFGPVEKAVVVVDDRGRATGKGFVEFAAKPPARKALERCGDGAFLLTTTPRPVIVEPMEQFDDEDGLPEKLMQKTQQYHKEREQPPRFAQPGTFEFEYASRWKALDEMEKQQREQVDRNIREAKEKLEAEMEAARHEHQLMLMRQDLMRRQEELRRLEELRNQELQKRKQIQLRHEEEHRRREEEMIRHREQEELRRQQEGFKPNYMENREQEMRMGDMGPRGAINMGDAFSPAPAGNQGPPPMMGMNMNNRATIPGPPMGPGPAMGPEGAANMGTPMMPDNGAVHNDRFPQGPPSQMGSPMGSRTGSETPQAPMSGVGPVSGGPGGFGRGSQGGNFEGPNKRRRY

ANXA2 (Homo sapiens) = ANXA2 (Homo sapiens) (UniProt P07355); conditions: 5-10-5 gapmer, 2'-MOE wings 1-5 and 16-20, 2'-deoxy gap, all C 5mC, full PS; specific PS-ASO association, western confirmed; protein in an extract; protein details: HeLa cell extract; label: 5' biotin-TEG (386652), none (116847); synthetic backbone
NPM1 (Homo sapiens) = NPM1 (Homo sapiens) (UniProt P06748); conditions: 5-10-5 gapmer, 2'-MOE wings 1-5 and 16-20, 2'-deoxy gap, all C 5mC, full PS; specific PS-ASO association, western confirmed; protein in an extract; protein details: HeLa cell extract; label: 5' biotin-TEG (386652), none (116847); synthetic backbone
NCL1 (Homo sapiens) = NCL1 (Homo sapiens) (UniProt P19338); conditions: 5-10-5 gapmer, 2'-MOE wings 1-5 and 16-20, 2'-deoxy gap, all C 5mC, full PS; specific PS-ASO association, western confirmed; protein in an extract; protein details: HeLa cell extract; label: 5' biotin-TEG (386652), none (116847); synthetic backbone
[4] = strand 1 5-10-5 MOE gapmer, 5mC, strand 2 first 7 nt RNA, rest 2'-OMe, PO, sample 2, duplex, label: 5' biotin on XL180
[5] = 5-10-5 gapmer, 2'-MOE wings 1-5 and 16-20, 2'-deoxy gap, all C 5mC, samples 1 and 2, label: 5' biotin-TEG (386652), none (116847), synthetic backbone

Measured: binding result

CTGCTAGCCTCTGGATTTGA / AGCAGUUCUCAAAUCCAGAGGCUAGCAG [Isis 116847 / XL180 duplex]
binds: Ku70 (Homo sapiens); [4] | Ku80 (Homo sapiens); strand 1 5-10-5 MOE gapmer, 5mC, strand 2 first 7 nt RNA, rest 2'-OMe, PO, sample 2, duplex, RNase I elution, label: 5' biotin on XL180 | RNaseH1 (Homo sapiens); [4] | ATAD3A (Homo sapiens); [4] | PSF (Homo sapiens); [4] | P54nrb (Homo sapiens); [4] | [1]; [4] | TCP1-beta (Homo sapiens); [4] | VARS (Homo sapiens); [4]

CTGCTAGCCTCTGGATTTGA [Isis 386652 / 116847 (PS/MOE)]
binds: La (SSB) (Homo sapiens) | [2] | Ku70 (Homo sapiens); [5] | Ku80 (Homo sapiens); 5-10-5 gapmer, 2'-MOE wings 1-5 and 16-20, 2'-deoxy gap, all C 5mC, samples 1 and 2, capture ASO 451104 or 386652, eluted by 116847, label: 5' biotin-TEG (386652), none (116847), synthetic backbone | RNaseH1 (Homo sapiens); [5] | [3] | hnRNPK (Homo sapiens) | KCTD12 (Homo sapiens) | ATAD3A (Homo sapiens); [5] | PSPC1 (Homo sapiens) | ANXA2 (Homo sapiens) | NPM1 (Homo sapiens) | PSF (Homo sapiens); [5] | P54nrb (Homo sapiens); [5] | [1]; [5] | TCP1-beta (Homo sapiens); [5] | NCL1 (Homo sapiens) | VARS (Homo sapiens); [5]
